## Library screen at single concentrations

Amino acid sequences for entries named in this document (tags omitted). Residues count along the entry.
UniProt P9WPC5, whole entry: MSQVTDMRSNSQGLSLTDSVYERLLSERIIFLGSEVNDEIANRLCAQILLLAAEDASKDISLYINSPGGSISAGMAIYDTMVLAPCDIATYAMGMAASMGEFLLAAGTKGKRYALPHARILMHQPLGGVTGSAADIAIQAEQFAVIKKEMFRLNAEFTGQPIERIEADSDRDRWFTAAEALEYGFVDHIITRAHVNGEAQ
UniProt P9WPC3, whole entry partner: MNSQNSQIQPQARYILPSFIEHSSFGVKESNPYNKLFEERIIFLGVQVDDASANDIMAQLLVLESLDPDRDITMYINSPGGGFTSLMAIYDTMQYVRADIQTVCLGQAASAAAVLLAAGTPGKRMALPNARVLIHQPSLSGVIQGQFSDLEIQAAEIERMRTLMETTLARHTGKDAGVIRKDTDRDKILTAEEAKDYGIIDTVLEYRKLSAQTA
UniProt Q4DA54, 1-478: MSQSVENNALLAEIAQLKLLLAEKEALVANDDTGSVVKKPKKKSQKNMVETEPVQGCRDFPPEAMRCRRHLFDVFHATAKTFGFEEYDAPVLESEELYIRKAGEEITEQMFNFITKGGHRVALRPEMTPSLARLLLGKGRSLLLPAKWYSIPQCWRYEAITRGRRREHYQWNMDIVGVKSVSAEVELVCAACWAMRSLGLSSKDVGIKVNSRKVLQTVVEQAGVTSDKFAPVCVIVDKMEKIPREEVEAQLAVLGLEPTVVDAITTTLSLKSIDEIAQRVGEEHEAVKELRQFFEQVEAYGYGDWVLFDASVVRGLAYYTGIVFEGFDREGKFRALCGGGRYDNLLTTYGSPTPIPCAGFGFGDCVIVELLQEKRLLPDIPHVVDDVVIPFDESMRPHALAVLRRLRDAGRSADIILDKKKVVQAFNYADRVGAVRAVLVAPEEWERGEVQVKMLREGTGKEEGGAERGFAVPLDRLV
UniProt Q8IDJ8, 1-583: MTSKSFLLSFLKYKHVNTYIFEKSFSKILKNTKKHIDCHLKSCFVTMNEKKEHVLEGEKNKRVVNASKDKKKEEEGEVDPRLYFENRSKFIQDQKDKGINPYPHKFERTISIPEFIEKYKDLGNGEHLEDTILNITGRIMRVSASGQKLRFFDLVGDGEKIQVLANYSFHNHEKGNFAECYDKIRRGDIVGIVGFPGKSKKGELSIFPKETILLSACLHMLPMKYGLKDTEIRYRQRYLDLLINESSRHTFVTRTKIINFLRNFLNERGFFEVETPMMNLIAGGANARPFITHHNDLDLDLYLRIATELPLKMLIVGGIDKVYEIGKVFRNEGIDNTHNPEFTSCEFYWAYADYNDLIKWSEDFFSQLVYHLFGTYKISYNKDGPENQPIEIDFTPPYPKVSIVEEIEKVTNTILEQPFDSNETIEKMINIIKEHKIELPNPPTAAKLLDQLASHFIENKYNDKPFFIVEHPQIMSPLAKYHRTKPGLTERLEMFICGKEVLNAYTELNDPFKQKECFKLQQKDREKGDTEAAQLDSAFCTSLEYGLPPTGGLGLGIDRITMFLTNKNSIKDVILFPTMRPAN
UniProt I6X8D2, whole entry: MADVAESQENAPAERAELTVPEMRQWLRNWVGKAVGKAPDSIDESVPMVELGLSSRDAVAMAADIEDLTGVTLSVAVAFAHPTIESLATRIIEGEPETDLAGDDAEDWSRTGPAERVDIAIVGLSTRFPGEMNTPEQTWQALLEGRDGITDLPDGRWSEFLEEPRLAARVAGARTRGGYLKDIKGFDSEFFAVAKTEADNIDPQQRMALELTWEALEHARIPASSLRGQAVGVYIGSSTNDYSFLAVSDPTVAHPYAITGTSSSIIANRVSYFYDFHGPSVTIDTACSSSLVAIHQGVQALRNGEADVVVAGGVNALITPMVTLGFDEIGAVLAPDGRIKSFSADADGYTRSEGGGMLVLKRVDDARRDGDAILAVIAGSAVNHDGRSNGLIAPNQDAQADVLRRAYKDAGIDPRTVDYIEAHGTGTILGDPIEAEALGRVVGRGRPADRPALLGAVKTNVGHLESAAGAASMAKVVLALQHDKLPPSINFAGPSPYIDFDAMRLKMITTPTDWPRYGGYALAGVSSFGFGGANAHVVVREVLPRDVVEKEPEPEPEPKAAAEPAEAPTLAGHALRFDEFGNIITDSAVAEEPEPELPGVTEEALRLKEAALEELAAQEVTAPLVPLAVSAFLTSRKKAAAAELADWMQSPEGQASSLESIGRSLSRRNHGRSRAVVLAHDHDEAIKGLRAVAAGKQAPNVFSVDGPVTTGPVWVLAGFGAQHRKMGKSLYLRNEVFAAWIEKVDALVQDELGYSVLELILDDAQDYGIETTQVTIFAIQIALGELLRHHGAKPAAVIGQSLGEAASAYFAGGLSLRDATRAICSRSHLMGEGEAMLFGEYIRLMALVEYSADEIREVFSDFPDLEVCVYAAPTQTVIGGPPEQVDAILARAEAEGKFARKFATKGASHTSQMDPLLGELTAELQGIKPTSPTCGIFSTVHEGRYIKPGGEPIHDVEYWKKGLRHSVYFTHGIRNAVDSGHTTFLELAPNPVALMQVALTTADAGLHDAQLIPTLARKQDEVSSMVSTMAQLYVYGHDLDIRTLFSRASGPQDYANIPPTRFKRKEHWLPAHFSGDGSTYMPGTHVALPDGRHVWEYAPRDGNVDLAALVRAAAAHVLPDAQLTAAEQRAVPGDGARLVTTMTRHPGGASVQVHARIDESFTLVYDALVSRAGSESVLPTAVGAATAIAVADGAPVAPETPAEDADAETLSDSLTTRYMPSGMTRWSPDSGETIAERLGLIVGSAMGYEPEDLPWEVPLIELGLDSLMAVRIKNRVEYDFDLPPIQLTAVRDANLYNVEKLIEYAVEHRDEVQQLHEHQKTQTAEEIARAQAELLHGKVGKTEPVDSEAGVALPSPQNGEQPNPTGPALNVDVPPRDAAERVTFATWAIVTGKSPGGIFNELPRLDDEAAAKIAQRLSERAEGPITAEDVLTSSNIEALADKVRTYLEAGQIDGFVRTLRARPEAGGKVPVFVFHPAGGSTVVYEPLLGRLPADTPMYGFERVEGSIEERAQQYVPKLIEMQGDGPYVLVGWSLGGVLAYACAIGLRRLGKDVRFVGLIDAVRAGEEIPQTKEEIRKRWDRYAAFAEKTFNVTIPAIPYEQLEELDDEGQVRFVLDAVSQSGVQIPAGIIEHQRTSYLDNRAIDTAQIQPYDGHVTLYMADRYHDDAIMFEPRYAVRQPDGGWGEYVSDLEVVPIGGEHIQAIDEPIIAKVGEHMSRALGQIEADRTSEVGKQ

ClpP1P2: 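ClpP1P2, Mycobacterium tuberculosis (UniProt P9WPC5 and UniProt P9WPC3). Protease assay of ClpP1P2, read by the AMC dye that it sets free. Compounds at 50 µM. Direction is inferred from only a few compounds that gave an IC50; most scored high, so higher reads as stronger inhibition. Most other retested compounds had strongly negative values. Size under these conditions: about 69,000 compounds, about 10 of them at 50% or above in at least one test.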
TcHisRS: 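Histidine-tRNA ligase, Trypanosoma cruzi CL Brener (UniProt Q4DA54). Enzyme assay of histidyl-tRNA synthetase; the read-out is not stated. Compounds at 30 µM. The record gives no direction; compounds that gave an IC50 in retests scored well above the rest, so higher reads as stronger inhibition. About 69,000 compounds were tested under these conditions; 0.045% (about 31) showed 50% or more at least once.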
PfKRS1: 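Enzyme assay of the cytosolic lysyl-tRNA synthetase in 384-well plates, read by luminescence. Target: Lysine-tRNA ligase, Plasmodium falciparum 3D7 (UniProt Q8IDJ8). Compounds at 30 µM. Higher reads as stronger inhibition, judged from the few compounds that gave an IC50. About 69,000 compounds were tested under these conditions; 0.071% (about 49) showed 50% or more at least once.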
Pks13 thioesterase: 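Enzyme assay of the thioesterase domain of polyketide synthase 13; the read-out is not stated. Target: Polyketide synthase Pks13, Mycobacterium tuberculosis (UniProt I6X8D2). Compounds at 30 µM. The record gives no direction; the compounds picked for IC50 retests had high values, so higher reads as stronger inhibition. Size under these conditions: about 67,000 compounds, about 300 of them at 50% or above in at least one test.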

Results are given as percent effect. How 0% and 100% were set is not recorded. Most values in the screen are low, and negative values occur. This is an unselected part of the compounds tested.

CCN(CC)C(CNS(=O)(=O)c1ccc(C(=O)NC)cc1)c1ccco1 (stereo not given) read ClpP1P2: 10.61%; TcHisRS: 9.091%; PfKRS1: 7.045%; Pks13 thioesterase: -5.362%.
CCCNC(=O)c1cn(C(C)(C)C)c2ncccc12 read ClpP1P2: -6.805%; TcHisRS: 9.091%; PfKRS1: 3.881%; Pks13 thioesterase: 5.869%.
CCN(Cc1cccc(-c2ccncc2)c1)S(N)(=O)=O read ClpP1P2: 1.666%; TcHisRS: 7.65%; PfKRS1: 2.817%; Pks13 thioesterase: -15.14%.
Cc1noc(CN2CCN(c3cncc(Cl)n3)CC2)n1 read ClpP1P2: 10.98%; TcHisRS: 17%; PfKRS1: 5.122%; Pks13 thioesterase: 7.086%.
CN(C)C1COC2(CCN(C(=O)c3cccc(Cl)c3)CC2)C1 (stereo not given) read ClpP1P2: -10.1%; TcHisRS: 11.65%; PfKRS1: 4.245%; Pks13 thioesterase: -24.47%.
CS(=O)(=O)CCn1ccc(NC(=O)Cc2cccc(Cl)c2)n1 read ClpP1P2: -7.975%; TcHisRS: 1.345%; PfKRS1: 11.03%; Pks13 thioesterase: -22.92%.
CC(=O)c1cc(CC(=O)N2CCN(S(=O)(=O)c3ccccc3)CC2)cs1 read ClpP1P2: -8.717%; TcHisRS: 4.762%; PfKRS1: 15.19%; Pks13 thioesterase: 4.813%.
COc1coc(C(=O)Nc2nc(-c3ccncc3)cs2)cc1=O read ClpP1P2: -10.44%; TcHisRS: 4.95%; PfKRS1: 0.09152%; Pks13 thioesterase: -1.764%.
O=C(c1ccco1)N1CCCC2(CCN(c3nncs3)C2)C1 (stereo not given) read ClpP1P2: 1.829%; TcHisRS: 6.63%; PfKRS1: 3.744%; Pks13 thioesterase: -25.23%.
Cc1ccc(C(=O)N2Cc3ccccc3OC3(CCOCC3)C2)cn1 read ClpP1P2: -10.8%; TcHisRS: -1.493%; PfKRS1: -0.192%; Pks13 thioesterase: -29%.
Cc1cccc(CN2CC3(CCN(Cc4ccoc4)CC3)OCC2=O)n1 read ClpP1P2: -7.609%; TcHisRS: 7.477%; PfKRS1: -3.311%; Pks13 thioesterase: -22.17%.
COC(=O)CN(C(=O)c1ccc(-n2ccnc2)cc1)C1CCCC1 read ClpP1P2: 10.55%; TcHisRS: 3.982%; PfKRS1: -0.778%; Pks13 thioesterase: -8.729%.
O=S(=O)(NCC1COCCO1)c1ccc(C2CCCCC2)cc1 (stereo not given) read ClpP1P2: -0.3433%; TcHisRS: 6.494%; PfKRS1: 2.953%; Pks13 thioesterase: -21.65%.
CCS(=O)(=O)N1CCN(C)c2ncccc2C1 read ClpP1P2: 0.9858%; TcHisRS: -4.444%; PfKRS1: 0.1694%; Pks13 thioesterase: 8.07%.
COC(=O)C(CNC(=O)Nc1cn[nH]c1)Cc1cccc(C)c1 (stereo not given) read ClpP1P2: -2.597%; TcHisRS: 2.717%; PfKRS1: 8.201%; Pks13 thioesterase: -33.99%.
Cc1ncsc1CCN(C)C(=O)CN1CCOC1=O read ClpP1P2: 7.591%; TcHisRS: 0.5618%; PfKRS1: -1.389%; Pks13 thioesterase: -18.65%.
COc1ccc2c(c1)CN(CC(=O)NC1CCCC1)CC2 read ClpP1P2: -11.64%; TcHisRS: 5%; PfKRS1: 1.95%; Pks13 thioesterase: -12.64%.
O=C(NCC(O)c1ccc(Cl)c(F)c1)NC1CC=CC1 (stereo not given) read ClpP1P2: -5.778%; TcHisRS: 10%; PfKRS1: 4.871%; Pks13 thioesterase: -11.26%.
Cn1ccc(C(=O)N2CCN(Cc3ccccc3F)CC2)cc1=O read ClpP1P2: -5.203%; TcHisRS: 3.097%; PfKRS1: 4.087%; Pks13 thioesterase: 14.96%.
c1ccc(CCCN2CCN(c3ccc4nncn4n3)CC2)cc1 read ClpP1P2: -13.65%; TcHisRS: 12.57%; PfKRS1: 0.9129%; Pks13 thioesterase: -10.22%.
CNC(=O)CCc1cc(C2CCCCN2C)nc(C)n1 (stereo not given) read ClpP1P2: -5.429%; TcHisRS: 3.143%; PfKRS1: -1.02%; Pks13 thioesterase: -8.303%.
CCc1nc(N)sc1C(=O)N1CCCC(CCc2ccccc2C)C1 (stereo not given) read ClpP1P2: -4.272%; TcHisRS: 6.78%; PfKRS1: 8.258%; Pks13 thioesterase: -18.4%.
Cc1ncsc1CCC(=O)NCc1csc(N2CCCC2)n1 read ClpP1P2: 2.232%; TcHisRS: 7.447%; PfKRS1: 5.055%; Pks13 thioesterase: -17.87%.
Cc1nnc(CN2CCCC2c2ccc(Cl)c(Cl)c2)o1 (stereo not given) read ClpP1P2: 1.205%; TcHisRS: 15.29%; PfKRS1: 2.206%; Pks13 thioesterase: -2.148%.
CCOC(=O)CNC(=O)NCc1cccn1Cc1ccccc1 read ClpP1P2: -13.03%; TcHisRS: 6.098%; PfKRS1: -1.569%; Pks13 thioesterase: 7.113%.
CCCn1ccnc1CNC(=O)C1COc2cc(OC)ccc2C1 (stereo not given) read ClpP1P2: -8.259%; TcHisRS: 5.263%; PfKRS1: -0.5467%; Pks13 thioesterase: -23.26%.
Cc1cccc2c1nc1n2[C@@H](CNC(=O)NC(C)C)COC1 read ClpP1P2: -16.83%; TcHisRS: 7.609%; PfKRS1: 8.852%; Pks13 thioesterase: 3.581%.
Cc1cnc(-c2cccc(-c3ccn(CCCO)n3)c2)nc1N(C)C read ClpP1P2: 7.732%; TcHisRS: 11.88%; PfKRS1: -2.196%; Pks13 thioesterase: -8.21%.
O=C(N1CCCC1)N1CCOCC2(C1)CN(c1ccccc1)C(=O)CO2 (stereo not given) read ClpP1P2: -24.9%; TcHisRS: 0.9524%; PfKRS1: -2.005%; Pks13 thioesterase: -22.74%.
Cc1cc(-c2cnc(C)nc2CN(C)C(=O)c2ccccn2)on1 read ClpP1P2: -19.31%; TcHisRS: 1.521%; PfKRS1: -0.8053%; Pks13 thioesterase: 1.466%.
CCN(Cc1noc(C)n1)C(=O)C(c1cccc(C)c1)N(C)C (stereo not given) read ClpP1P2: -1.992%; TcHisRS: -2.128%; PfKRS1: -4.166%; Pks13 thioesterase: -16.11%.
CCSc1ncc(CN2CC[C@@](O)(COC)C(C)(C)C2)cn1 read ClpP1P2: -4.394%; TcHisRS: 4.878%; PfKRS1: 4.813%; Pks13 thioesterase: -11.01%.

For reference, 2 entries once more:

* CCS(=O)(=O)N1CCN(C)c2ncccc2C1 : ClpP1P2: 0.9858%; TcHisRS: -4.444%; PfKRS1: 0.1694%; Pks13 thioesterase: 8.07%
* CN(C)C1COC2(CCN(C(=O)c3cccc(Cl)c3)CC2)C1 (stereo not given) : ClpP1P2: -10.1%; TcHisRS: 11.65%; PfKRS1: 4.245%; Pks13 thioesterase: -24.47%

From ChEMBL document CHEMBL3988442, “University of Dundee, Small-Polar-MMV Screening Library” (2021).